Measured values from PMC8138766.
Results are given in words; binding and its absence hold for the method and conditions named. Binding seen in cells or lysates may run through a third protein. Some results given as binding are weak or reduced against the parent protein; the word gives no strength. Tags and fused reporters may be left off the sequences shown.

Protein sequences, listed by entry. Tags and fused reporters are not part of them.
UniProt P52286: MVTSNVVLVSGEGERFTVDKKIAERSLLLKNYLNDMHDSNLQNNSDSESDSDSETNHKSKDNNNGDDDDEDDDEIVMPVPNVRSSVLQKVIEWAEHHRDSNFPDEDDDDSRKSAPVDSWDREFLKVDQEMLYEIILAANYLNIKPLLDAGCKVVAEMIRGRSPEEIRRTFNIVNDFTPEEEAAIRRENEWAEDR

Biological target: T1, Rav2-FLAG (yeast) (UniProt Q03956)
T1 sequence: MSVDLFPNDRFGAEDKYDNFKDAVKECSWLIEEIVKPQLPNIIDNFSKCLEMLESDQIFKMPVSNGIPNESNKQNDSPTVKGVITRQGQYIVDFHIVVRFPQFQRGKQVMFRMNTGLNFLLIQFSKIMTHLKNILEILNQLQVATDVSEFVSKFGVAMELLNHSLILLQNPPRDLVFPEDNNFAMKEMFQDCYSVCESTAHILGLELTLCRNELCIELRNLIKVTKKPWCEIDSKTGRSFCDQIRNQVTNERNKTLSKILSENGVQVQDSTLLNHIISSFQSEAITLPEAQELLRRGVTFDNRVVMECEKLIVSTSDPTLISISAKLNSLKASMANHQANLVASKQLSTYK
Experiment: co-IP; anti-FLAG M2 affinity column on cleared lysate of galactose-induced yeast (bait Rav2-FLAG), PBS or TBSE pH 7.4, elution with FLAG peptide; Coomassie SDS-PAGE and immunoblots for V1 subunits A, B and C

**Q.** Which binding does the source give for Skp1–His6 (from UniProt P52286 1-194) here?
**A.** binds
